{"source": "paper PMC9596850", "about": "“Tonsillar Microbiome‐Derived Lantibiotics Induce Structural Changes of IL‐6 and IL‐21 Receptors and Modulate Host Immunity” (Advanced Science, 2022)", "molecular_target": "T1, recombinant mouse IL-6 receptor subunit alpha protein with the Fc region of mouse IgG2a (mouse) (UniProt P22272)", "T1 sequence": "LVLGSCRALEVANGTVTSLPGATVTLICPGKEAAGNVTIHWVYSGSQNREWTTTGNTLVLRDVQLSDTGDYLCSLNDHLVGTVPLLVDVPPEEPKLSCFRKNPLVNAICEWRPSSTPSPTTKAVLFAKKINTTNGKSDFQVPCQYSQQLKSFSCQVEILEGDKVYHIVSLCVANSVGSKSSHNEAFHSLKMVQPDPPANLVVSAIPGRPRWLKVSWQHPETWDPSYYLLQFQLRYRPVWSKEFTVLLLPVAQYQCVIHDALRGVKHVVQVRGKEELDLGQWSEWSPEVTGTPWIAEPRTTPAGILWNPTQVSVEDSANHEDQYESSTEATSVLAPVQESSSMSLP", "assay": "condition: 5 µg peptide with 0.5 µg receptor in 1 mL; pull-down; Fc-receptor (0.5 µg) with peptide (5 µg) in 1 mL 20 mM Tris-HCl pH 7.6, 200 mM NaCl, 1 mM EDTA, 4 °C, 2 h; captured on Protein A agarose; eluate read by mass spectrometry (LTQ-Orbitrap Velos, Q-Exactive); both purified", "note": "These are yes or no findings as the source states them, for the method shown. Where a sequence is shown, tags or fusion partners need not be part of it.", "data": [{"binder": "CCVFVSNPCDDTITAFWGTGRK", "note": "[negative control peptide A]", "values": [{"measurement": "binding", "result": "no binding"}]}, {"binder": "SCCTFLFQWSNMRCEHSITQIVGGG", "note": "[negative control peptide B]", "values": [{"measurement": "binding", "result": "no binding"}]}]}
